Here are results for two molecules from PMC4352251, “The VieB auxiliary protein negatively regulates the VieSA signal transduction system in Vibrio cholerae” (BMC Microbiology, 2015).

The target of test [1] is T1, VieB (wild type, His6 tag removed) (UniProt O68319).
T1 sequence: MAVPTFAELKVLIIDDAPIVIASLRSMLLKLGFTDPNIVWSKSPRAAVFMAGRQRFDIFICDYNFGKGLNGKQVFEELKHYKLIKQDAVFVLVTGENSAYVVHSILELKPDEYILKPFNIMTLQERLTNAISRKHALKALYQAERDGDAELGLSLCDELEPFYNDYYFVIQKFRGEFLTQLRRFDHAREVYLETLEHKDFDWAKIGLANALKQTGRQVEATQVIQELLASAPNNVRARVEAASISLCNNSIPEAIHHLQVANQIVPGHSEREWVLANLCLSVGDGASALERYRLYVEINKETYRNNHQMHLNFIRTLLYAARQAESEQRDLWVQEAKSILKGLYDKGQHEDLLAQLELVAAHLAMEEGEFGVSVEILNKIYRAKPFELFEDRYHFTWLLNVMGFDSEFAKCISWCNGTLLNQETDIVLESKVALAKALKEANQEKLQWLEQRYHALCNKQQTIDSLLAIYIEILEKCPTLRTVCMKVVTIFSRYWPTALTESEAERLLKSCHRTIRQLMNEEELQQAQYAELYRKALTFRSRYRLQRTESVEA
Kind of test: composition-gradient MALS (CG-MALS); both purified.

Test [2] addresses T1, VieB (wild type, His6 tag removed). The test is described as follows: SEC-MALS; Superose12 10/300 GL in Gel Filtration Buffer (25 mM Tris pH 7.5, 100 mM KCl, 1 mM DTT, 5% glycerol); column at 4°C, light scattering at 25°C; self-association of each protein; both purified.

No constants are given. Whether binding was seen depends on the method and setting. Tags and fused reporters may be left off the sequences shown.

B1: VieA-His6 (response regulator VieA) (natural protein)
chain: MKIMIVEDDRIQATSLKLKLRQLGLDDVILAENGFAALELCNKVGIDLMFCDIRMPQMDGISLLSQLSLQAPKLGVVILSAVEDTILELTHNMCSLAGFAYVDRLPKPYEVEDLQRVVEGFQKQTEPETSHKPAITLTCDEIEQAFLHDHIFNYYQPQFDFRSGAMVGVEALVRYEHPTHGMLSPAVFLPLIEQCGLHEKLFLTVLEKSVSALASIGADLQLSVNISQRNLQHSICDPILAICERYGFPASKLTLEMTEHEVYNGTPTSLANLARLRMYGVGLSIDDFGTGYASLGQLAQLPFTELKIDRSFVHDLATNYKHQQLTNMCLLLAQSLGLHCVVEGVENEETWQYLRQLGVDTCQGYYAAKPMPIAQLSELYTKNRRQCLGCQSMDDGWQILLVDNHMLSATALQKVLNKEENVSKVFVAQDIEQTLHKLRDLPINLLVVESRFLSTISPAAFHELLEPYYRGALLVLHDGLTAEAQEDEPKAIVVKANTLMETSSRILLQAQQSNVRPQAQQEELAQLSERELTVAKMLVEGLTNKEIALQLDINQKTVSTYKTRIMTKLGIKSAMELVRFVTLK
notes: not shown: His6, C-terminal, kept
B1: the binding result in test [1] was “no binding”.

B2: VieB (wild type, His6 tag removed) (protein, UniProt O68319 1-553)
chain: MAVPTFAELKVLIIDDAPIVIASLRSMLLKLGFTDPNIVWSKSPRAAVFMAGRQRFDIFICDYNFGKGLNGKQVFEELKHYKLIKQDAVFVLVTGENSAYVVHSILELKPDEYILKPFNIMTLQERLTNAISRKHALKALYQAERDGDAELGLSLCDELEPFYNDYYFVIQKFRGEFLTQLRRFDHAREVYLETLEHKDFDWAKIGLANALKQTGRQVEATQVIQELLASAPNNVRARVEAASISLCNNSIPEAIHHLQVANQIVPGHSEREWVLANLCLSVGDGASALERYRLYVEINKETYRNNHQMHLNFIRTLLYAARQAESEQRDLWVQEAKSILKGLYDKGQHEDLLAQLELVAAHLAMEEGEFGVSVEILNKIYRAKPFELFEDRYHFTWLLNVMGFDSEFAKCISWCNGTLLNQETDIVLESKVALAKALKEANQEKLQWLEQRYHALCNKQQTIDSLLAIYIEILEKCPTLRTVCMKVVTIFSRYWPTALTESEAERLLKSCHRTIRQLMNEEELQQAQYAELYRKALTFRSRYRLQRTESVEA
For B2, the binding entry in test [2] is recorded as “no binding”.
